Source: article PMC5467231
No constants are given. Whether binding was seen depends on the method and setting. Where a sequence is shown, tags or fusion partners need not be part of it.

Biological target: T1, recombinant human MCAM/Fc chimera (Sino Biological 10115-H02H) (human) (UniProt P43121)
T1 sequence: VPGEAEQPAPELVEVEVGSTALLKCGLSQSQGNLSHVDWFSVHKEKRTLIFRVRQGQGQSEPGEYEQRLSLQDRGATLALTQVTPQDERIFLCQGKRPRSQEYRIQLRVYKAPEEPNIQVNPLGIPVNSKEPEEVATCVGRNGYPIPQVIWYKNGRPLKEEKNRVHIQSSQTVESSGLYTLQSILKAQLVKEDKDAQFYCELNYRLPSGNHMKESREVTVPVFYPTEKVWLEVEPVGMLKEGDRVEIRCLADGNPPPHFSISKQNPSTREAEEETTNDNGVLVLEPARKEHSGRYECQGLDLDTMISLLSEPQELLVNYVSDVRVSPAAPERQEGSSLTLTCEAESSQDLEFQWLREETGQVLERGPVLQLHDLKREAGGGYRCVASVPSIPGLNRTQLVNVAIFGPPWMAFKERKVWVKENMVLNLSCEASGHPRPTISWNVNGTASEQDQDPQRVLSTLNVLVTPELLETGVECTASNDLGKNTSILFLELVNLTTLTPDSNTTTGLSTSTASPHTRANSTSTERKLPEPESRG
Test: SPR; Biacore T100, CM5 chip, room temperature, 1x PBS with 0.05% Tween 20; MCAM/Fc, FGFR1/Fc, FGFR2/Fc or IgG1 Fc immobilised by amine coupling, soluble FGF2, FGF4 or FGF8 flowed over; 1:1 binding model; both purified

binding: no binding
Substance: recombinant FGF8a (R&D Systems 4745-F8-050) (ligand)
